PubChem BioAssay AID1224828 | NIAID | 2016

Screen: 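Regulators linking TLR4 signalling to p65 nuclear translocation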 (primary screen)
Cell system: mouse RAW264.7 G9 macrophage reporter cells (GFP-p65, Tnf promoter-mCherry)
Knock-down reagent: siRNA pool against mouse genes, 100 nM
Time to read-out: 2 days siRNA transfection, then 40 min LPS before fixation
Treatment: LPS (Salmonella minnesota R595) at 10 ng/ml
Measurement: 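Imaged p65 nuclear translocation ratio, normalised to the plate median, converted to robust z-scores and averaged across two replicates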
Scale: p65 translocation robust z-score: higher = more nuclear NF-kappaB p65 after LPS than the plate median; nuclear/cytoplasmic p65 ratio: higher = more nuclear NF-kappaB p65
Hit rule: 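Called active when z exceeds 3.3 or falls under -1.56 (median of Tlr4 controls), giving activity score of at least 50; no calls for control wells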
Calls: active = hit (p65 shift raised or lowered); inactive = no clear change
The whole screen tested about 17,000 reagents; this is an unselected part. Over the whole deposit, 762 (4.5%) were called active. 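Active calls include both raised and lowered p65 entry, mostly lowered; wells with fewer than 50 cells lack a z-score.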 The raw values are shown without normalisation. The numbers tell different reagents against one gene apart.

gene symbol | pool no. | p65 translocation robust z-score | nuclear/cytoplasmic p65 ratio, rep 1 | nuclear/cytoplasmic p65 ratio, rep 2 | low cell count flag | Outcome
Wfikkn2 (GeneID 278507) | 1 | -0.83 | 1.4 | 1.47 | enough cells to score | inactive
Aimp1 (GeneID 13722) | 1 | -0.47 | 1.5 | 1.47 | enough cells to score | inactive
Dok7 (GeneID 231134) | 1 | – | 1.35 | 1.42 | fewer than 50 cells per well; well left out of scoring | inactive
Gm9927 (GeneID 331513) | 1 | 1.71 | 1.69 | 1.75 | enough cells to score | inactive
Zfp286 (GeneID 192651) | 1 | -2.75 | 1.31 | 1.13 | enough cells to score | active
Mapkbp1 (GeneID 26390) | 1 | -1.51 | 1.53 | 1.28 | enough cells to score | inactive
Tekt1 (GeneID 21689) | 1 | – | 1.22 | 0.951 | fewer than 50 cells per well; well left out of scoring | inactive
L3mbtl3 (GeneID 237339) | 1 | 0.1 | 1.61 | 1.4 | enough cells to score | inactive
Catsper4 (GeneID 329954) | 1 | -0.26 | 1.56 | 1.74 | enough cells to score | inactive
Plcd1 (GeneID 18799) | 1 | 1.46 | 1.67 | 1.63 | enough cells to score | inactive
Or4d11 (GeneID 258675) | 1 | 0.28 | 1.65 | 1.46 | enough cells to score | inactive
Arfrp1 (GeneID 76688) | 1 | -0.68 | 1.43 | 1.6 | enough cells to score | inactive
Fimp1 (GeneID 78118) | 1 | – | 1.24 | 1.49 | fewer than 50 cells per well; well left out of scoring | inactive
Lmtk2 (GeneID 231876) | 1 | 2.27 | 2.01 | 1.7 | enough cells to score | inactive
Noxo1 (GeneID 71893) | 1 | -0.1 | 1.71 | 1.5 | enough cells to score | inactive
Dnajc2 (GeneID 22791) | 1 | 1.49 | 1.74 | 1.49 | enough cells to score | inactive
Dnajc2 (GeneID 22791) | 2 | -0.16 | 1.25 | 1.23 | enough cells to score | inactive
Rxylt1 (GeneID 216395) | 1 | 0.11 | 1.62 | 1.45 | enough cells to score | inactive
Zgrf1 (GeneID 71643) | 1 | 0.8 | 1.36 | 1.39 | enough cells to score | inactive
Acsm4 (GeneID 233801) | 1 | – | 1.32 | 1.35 | fewer than 50 cells per well; well left out of scoring | inactive
Hmgb3 (GeneID 15354) | 1 | -0.97 | 1.31 | 1.25 | enough cells to score | inactive
Gbp6 (GeneID 100702) | 1 | 0.41 | 1.6 | 1.82 | enough cells to score | inactive
Gstp2 (GeneID 14869) | 1 | -0.09 | 1.43 | 1.35 | enough cells to score | inactive
Fitm2 (GeneID 228859) | 1 | 0.01 | 1.59 | 1.53 | enough cells to score | inactive

Taken from above:
For “Outcome”, Noxo1 (GeneID 71893) reads inactive
For “nuclear/cytoplasmic p65 ratio, rep 1”, Gbp6 (GeneID 100702) reads 1.6
Result for Zgrf1 (GeneID 71643) in “nuclear/cytoplasmic p65 ratio, rep 2”: 1.39
Dnajc2 (GeneID 22791) #2, nuclear/cytoplasmic p65 ratio, rep 2: 1.23
Result for L3mbtl3 (GeneID 237339) under “p65 translocation robust z-score”: 0.1
Under “Outcome”, Aimp1 (GeneID 13722) shows inactive

Additional entries follow.
gene symbol | pool no. | p65 translocation robust z-score | nuclear/cytoplasmic p65 ratio, rep 1 | nuclear/cytoplasmic p65 ratio, rep 2 | low cell count flag | Outcome
4930563M21Rik (GeneID 75258) | 1 | – | 1.15 | 1.33 | fewer than 50 cells per well; well left out of scoring | inactive
Tcf21 (GeneID 21412) | 1 | -2.27 | 1.19 | 1.21 | enough cells to score | active
Polr1d (GeneID 20018) | 1 | 0.83 | 1.54 | 1.3 | enough cells to score | inactive
Dsg1c (GeneID 211924) | 1 | 0.68 | 1.55 | 1.42 | enough cells to score | inactive
St7l (GeneID 229681) | 1 | -0.87 | 1.47 | 1.38 | enough cells to score | inactive
Ppp3r1 (GeneID 19058) | 1 | -1.02 | 1.27 | 1.35 | enough cells to score | inactive
Thap11 (GeneID 59016) | 1 | – | 1.51 | 1.24 | fewer than 50 cells per well; well left out of scoring | inactive
Scg2 (GeneID 20254) | 1 | 1.18 | 1.54 | 1.82 | enough cells to score | inactive
1700001F09Rik (GeneID 71826) | 1 | – | 1.8 | 1.27 | fewer than 50 cells per well; well left out of scoring | inactive
Ghr (GeneID 14600) | 1 | 1.52 | 1.62 | 1.58 | enough cells to score | inactive
Il17ra (GeneID 16172) | 1 | 0.08 | 1.47 | 1.4 | enough cells to score | inactive
Lingo1 (GeneID 235402) | 1 | 0.26 | 1.72 | 1.62 | enough cells to score | inactive
Polg2 (GeneID 50776) | 1 | – | 1.6 | 1.17 | fewer than 50 cells per well; well left out of scoring | inactive
Cep250 (GeneID 16328) | 1 | 0.94 | 1.54 | 1.5 | enough cells to score | inactive
Pcdha5 (GeneID 12941) | 1 | 1.66 | 1.64 | 1.45 | enough cells to score | inactive
Uck2 (GeneID 80914) | 1 | 1.43 | 1.85 | 1.62 | enough cells to score | inactive
Ms4a8a (GeneID 64381) | 1 | 1.19 | 1.6 | 1.56 | enough cells to score | inactive
Bcap29 (GeneID 12033) | 1 | -0.52 | 1.48 | 1.59 | enough cells to score | inactive
Actrt1 (GeneID 73360) | 1 | -0.4 | 1.45 | 1.72 | enough cells to score | inactive
Cetn4 (GeneID 207175) | 1 | 0.13 | 1.72 | 1.69 | enough cells to score | inactive
Lpar5 (GeneID 381810) | 1 | -1.4 | 1.26 | 1.43 | enough cells to score | inactive
Wdr86 (GeneID 269633) | 1 | 0.32 | 1.38 | 1.56 | enough cells to score | inactive
Gfral (GeneID 404194) | 1 | 1.67 | 1.9 | 1.79 | enough cells to score | inactive
Ubqln3 (GeneID 244178) | 1 | -0.59 | 1.46 | 1.39 | enough cells to score | inactive
A130023I24Rik (GeneID 320569) | 1 | 0.16 | 1.19 | 1.55 | enough cells to score | inactive
Map4 (GeneID 17758) | 1 | -0.77 | 1.65 | 1.49 | enough cells to score | inactive
Brd2 (GeneID 14312) | 1 | 0.19 | 1.51 | 1.41 | enough cells to score | inactive
Oxnad1 (GeneID 218885) | 1 | 0.12 | 1.5 | 1.97 | enough cells to score | inactive
Slc35a4 (GeneID 67843) | 1 | – | 1.23 | 1.17 | fewer than 50 cells per well; well left out of scoring | inactive
Tgoln2 (GeneID 22135) | 1 | – | 1.36 | 1.28 | fewer than 50 cells per well; well left out of scoring | inactive
Gna15 (GeneID 14676) | 1 | 0.08 | 1.52 | 1.59 | enough cells to score | inactive
Sod2 (GeneID 20656) | 1 | 1.01 | 1.63 | 1.77 | enough cells to score | inactive
Chrm5 (GeneID 213788) | 1 | -2 | 1.12 | 1.19 | enough cells to score | active
Vmn1r72 (GeneID 252905) | 1 | 0.62 | 1.46 | 1.31 | enough cells to score | inactive
Dusp21 (GeneID 73547) | 1 | 0.41 | 1.66 | 1.69 | enough cells to score | inactive
